# Reference: US20190025332A1
# Target: FCRL2-Fab-HPC4
# Assay: SPR; ligand as analyte over immobilised Ctrl.-Fab-HPC4
row,Binder,binding
1,"hNRTN (ligand, human, UniProt Q99748 96-197, looked up) ARLGARPCGLRELEVRVSELGLGYASDETVLFRYCAGACEAAARVYDLGLRRLRQRRRLRRERVRAQPCCRPTAYEDEVSFLDAHSRYHTVHELSARECACV",no binding
2,"hARTN (ligand, human, UniProt Q5T4W7 108-220, looked up) AGGPGSRARAAGARGCRLRSQLVPVRALGLGHRSDELVRFRFCSGSCRRARSPHDLSLASLLGAGALRPPPGSRPVSQPCCRPTRYEAVSFMDVNSTWRTVDRLSATACGCLG",no binding
3,"hGDNF (ligand, human, UniProt P39905 78-211, looked up) SPDKQMAVLPRRERNRQAAAANPENSRGKGRRGQRGKNRGCVLTAIHLNVTDLGLGYETKEELIFRYCSGSCDAAETTYDKILKNLSRNRRLVSDKVGQACCRPIAFDDDLSFLDDNLVYHILRKHSAKRCGCI",no binding

# The remaining lines, values ahead:
row,binding,Binder
1,no binding,"hPSPN (ligand, human, UniProt O60542 61-156, looked up) ALSGPCQLWSLTLSVAELGLGYASEEKVIFRYCAGSCPRGARTQHGLALARLQGQGRAHGGPCCRPTRYTDVAFLDDRHRWQRLPQLSAAACGCGG"
2,no binding,wild type human MIC-1 (ligand) ARNGDHCPLGPGRCCRLHTVRASLEDLGWADWVLSPREVQVTMCIGACPSQFRAANMHAQIKTSLHRLKPDTVPAPCCVPASYNPMVLIQKTDTGVSLQTYDDLLAKDCHCI

# These are yes or no findings as the source states them, for the method shown.
